This note sets out measurements from patent US20190091494A1 (Clinical Stem Cells Pty Ltd, priority 2016, published 2019).

A short description of the series: general procedure: Fmoc solid-phase peptide synthesis; Rink amide resin. To be noted: whole synthesis, LCMS (Shimadzu 2010AD), reverse phase C8 column.

Take “pyrGlu-Ala-Lys-Ser-Gln-Gly-Gly-Ser-Asn (EAKSQGGSN; N-terminal pyroglutamate; printed: Glu-Ala-Lys-Ser-Gln-Gly-Gly-Ser-Asn)”: the “purity (crude or final not stated)” value was more than 95%.
